{
  "source": "patent US20140187505A1",
  "about": "“Cardiac Glycosides to Treat Cystic Fibrosis and Other IL-8 Dependent Disorders” (priority 2002, published 2014)",
  "origin": "cited, not measured here",
  "key": {"[1]": {"details": "eluent acetonitrile/water 45:55; cited from earlier work"}, "[2]": {"details": "mobile phase: methanol/water 30:70; cited from earlier work"}},
  "note": "For at least one compound, name, drawing or mass did not settle the structure.",
  "data": [
    {"smiles": "C[C@]12CC[C@H](O)C[C@H]1CC[C@@H]1[C@@H]2C[C@@H](O)[C@]2(C)[C@@H](C3=CC(=O)OC3)CC[C@]12O", "note": "[digoxigenin]", "values": [
      {"measurement": "K retentions for reversed-phase high pressure liquid chromatography", "setting": "[1]", "result": 0.36},
      {"measurement": "RM values (lipophilicity, reversed-phase thin layer chromatography)", "setting": "[2]", "result": "−0.02"}
    ]}
  ]
}
